PubChem BioAssay AID1671195, Yale University – 2021
This is an unselected part of about 22,000 reagents. About 1,510 of all reagents (6.9%) were called active. 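Active includes knockdowns raising or lowering LDL uptake; positive z-scores mean more uptake, negative mean less.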 Entries without a mark were called inactive. No sequences are given here.

- Screen: 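Knockdowns that increase or decrease uptake of fluorescent LDL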 (primary screen)
- System: human Huh7 hepatoma cells
- Reagent: siRNA pool against human genes, 18 nM
- Duration: about 2 to 2.5 days of knockdown, then 8 h LDL uptake
- Conditions: DiI-labelled LDL at 30 µg/ml for 8 h, in lipoprotein-deficient serum medium
- Read-out: 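Fluorescent LDL signal imaged in cells, scaled to the plate median, robust z-score for each replicate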
- Reading the numbers: robust z-score: higher = more LDL uptake after knockdown
- Call rule: 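Active when two or more replicates show a robust z-score above 2 or below -2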

RXFP2 gave robust z-score, replicate 1 = -0.597; robust z-score, replicate 2 = -0.419; robust z-score, replicate 3 = -0.184.
NUP62 gave robust z-score, replicate 1 = -2.03 (active); robust z-score, replicate 2 = -1.97; robust z-score, replicate 3 = -1.88.
Against CDC23, the values are robust z-score, replicate 1 = 1.27; robust z-score, replicate 2 = 0.614; robust z-score, replicate 3 = 0.996.
For USP48, the entry reads robust z-score, replicate 1 = -0.38; robust z-score, replicate 2 = -0.502; robust z-score, replicate 3 = -0.455.
HIBCH showed robust z-score, replicate 1 = -0.558; robust z-score, replicate 2 = -0.853; robust z-score, replicate 3 = -0.776.
CDC14A scored robust z-score, replicate 1 = -1.98; robust z-score, replicate 2 = -1.99; robust z-score, replicate 3 = -1.86.
Against TGS1, the entry reads robust z-score, replicate 1 = -0.921; robust z-score, replicate 2 = -1; robust z-score, replicate 3 = -0.605.
SPRR2G gave robust z-score, replicate 1 = -1.01; robust z-score, replicate 2 = 0.0983; robust z-score, replicate 3 = -0.544.
With knock-down of PHOSPHO1, the record shows robust z-score, replicate 1 = -0.531; robust z-score, replicate 2 = -0.398; robust z-score, replicate 3 = 0.847.
Depletion of C4BPA resulted in: robust z-score, replicate 1 = 1.3; robust z-score, replicate 2 = 0.117; robust z-score, replicate 3 = 1.61.
Depletion of AKAP14 came out at: robust z-score, replicate 1 = 0.73; robust z-score, replicate 2 = 4.69; robust z-score, replicate 3 = 1.46.
With knock-down of ZSCAN4, the screen gave robust z-score, replicate 1 = 1.45; robust z-score, replicate 2 = 0.904; robust z-score, replicate 3 = 2.5.
Depletion of RTF1 resulted in: robust z-score, replicate 1 = -0.588; robust z-score, replicate 2 = -0.0566; robust z-score, replicate 3 = -0.676.
After knock-down of PROM1, the record shows robust z-score, replicate 1 = -0.205; robust z-score, replicate 2 = 0.44; robust z-score, replicate 3 = -1.48.
SP140L gave robust z-score, replicate 1 = -0.892; robust z-score, replicate 2 = -0.617; robust z-score, replicate 3 = -0.889.
With knock-down of ASB8 the results were robust z-score, replicate 1 = -0.95; robust z-score, replicate 2 = -1.5; robust z-score, replicate 3 = -0.283.
With knock-down of LOC401016 (retired record), the screen gave robust z-score, replicate 1 = 0.851; robust z-score, replicate 2 = 1.11; robust z-score, replicate 3 = 1.46.
After knock-down of RING1 the results were robust z-score, replicate 1 = -1.08; robust z-score, replicate 2 = -0.683; robust z-score, replicate 3 = -0.793.
ALDOC showed robust z-score, replicate 1 = -0.267; robust z-score, replicate 2 = -0.422; robust z-score, replicate 3 = -0.626.
After knock-down of OR1G1 the results were robust z-score, replicate 1 = -0.313; robust z-score, replicate 2 = 0.0633; robust z-score, replicate 3 = -0.796.
Against CKAP4, the values are robust z-score, replicate 1 = -2.55 (active); robust z-score, replicate 2 = -1.22; robust z-score, replicate 3 = -2.23.
For TRAF4, the values are robust z-score, replicate 1 = -0.514; robust z-score, replicate 2 = -1.21; robust z-score, replicate 3 = -0.836.
Depletion of FBXL17 gave: robust z-score, replicate 1 = 0.0436; robust z-score, replicate 2 = 0.874; robust z-score, replicate 3 = 0.409.
Silencing of TMEM130 gave: robust z-score, replicate 1 = -1.58; robust z-score, replicate 2 = -1.55; robust z-score, replicate 3 = -1.14.
Against BUB3 the deposit lists robust z-score, replicate 1 = -0.481; robust z-score, replicate 2 = -0.528; robust z-score, replicate 3 = -0.789.
Against XAF1 the deposit lists robust z-score, replicate 1 = -0.452; robust z-score, replicate 2 = 2.53; robust z-score, replicate 3 = 0.479.
Against SPATA31G1, the entry reads robust z-score, replicate 1 = 0.803; robust z-score, replicate 2 = 0.918; robust z-score, replicate 3 = 1.66.
Against LOC253254 (retired record), the values are robust z-score, replicate 1 = -0.351; robust z-score, replicate 2 = -0.56; robust z-score, replicate 3 = -0.124.
For MAGEB18, the values are robust z-score, replicate 1 = -1.14; robust z-score, replicate 2 = -0.992; robust z-score, replicate 3 = -0.858.
Against IVNS1ABP the deposit lists robust z-score, replicate 1 = 0.0778; robust z-score, replicate 2 = -0.635; robust z-score, replicate 3 = 1.57.
